Taken from: PubChem BioAssay AID1259308 (NCATS, 2017)
Here is an unselected part of about 59,000 deposited reagents. Over the whole deposit, about 1,510 (2.6%) were called active. 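Calls use total luciferase alone and ignore viability, so some active siRNAs may act by altering cell number.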 The numbers tell different reagents against one gene apart. Not all columns of the deposit are shown.

Test: 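Candidate targets for better recombinant protein yield in mammalian cells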 (primary screen)
System: human HEK293 embryonic kidney cells stably expressing firefly luciferase (HEK-CMV-Luc2-Hygro)
Reagent: single siRNA against human genes, 0.8 pmol siRNA per well
Timing: 72 h
Read-out: 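Luciferase light (ONE-Glo) measured on one replicate plate set and viability (CellTiter-Glo) on the other, scaled to a negative control siRNA, with robust z-scores and luciferase per cell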
Scale: total luciferase, z-score and total luciferase, % of control: higher = more reporter protein produced; luciferase per cell, z-score: higher = more reporter output per viable cell
Rule for the call: 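An siRNA counts as active if its total luciferase robust z-score exceeds 3; genes with two or more such siRNAs out of three were retested with fresh siRNAs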
Calls: active = raised luciferase; inactive = no rise

total luciferase, z-score	total luciferase, % of control	luciferase per cell, z-score	activity call	gene symbol	reagent
-0.333	75.3	-0.924	inactive	IL12A	1
0.201	85.9	-0.228	inactive	IL12A	2
1.66	115	1.28	inactive	IL12A	3
-1.69	48.3	-1.53	inactive	ZPBP2	1
0.634	94.5	0.376	inactive	ZPBP2	2
-0.315	75.6	-0.687	inactive	ZPBP2	3
-1.43	53.4	-1.44	inactive	BCAS3	1
-0.943	63.1	-0.294	inactive	BCAS3	2
-0.152	78.9	-0.305	inactive	BCAS3	3
-1.3	56.1	-1.34	inactive	XIAP	1
-0.114	79.6	-0.767	inactive	XIAP	2
0.157	85	0.0105	inactive	XIAP	3
2.27	127	1.1	inactive	EHD3	1
-0.79	66.2	-0.801	inactive	EHD3	2
0.433	90.5	-0.0534	inactive	EHD3	3
-1.5	52	-1.27	inactive	CAV1	1
0.955	101	1.19	inactive	CAV1	2
-0.94	63.2	-1.52	inactive	CAV1	3
-1.45	53.1	-1.45	inactive	KCNJ14	1
0.808	98	1.03	inactive	KCNJ14	2
-0.557	70.8	-0.652	inactive	KCNJ14	3
-0.582	70.3	-0.913	inactive	CEND1	1
0.106	84	-0.02	inactive	CEND1	2
-0.929	63.4	-0.286	inactive	CEND1	3
